Where a name gives a salt, the structure may show the parent alone. ± gives the standard deviation of the averaged measurements. This is one part of the list. Baselines shift from plate to plate; read single values as rough.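 The cells are a mouse kidney inner medullary collecting duct line, silenced either for the ciliary gene Rpgrip1l or with a non-targeting control siRNA.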
system: mIMCD3; experiment: robust z score of cilia incidence (% cells with single cilium) vs plate controls; higher = more ciliated cells; conditions: 10 µM; 48 h; siRNA: siScr

Structure (SMILES)	robust z score of cilia incidence
OC(CN1CCN(c2cccc(Cl)c2)CC1)C(c1ccccc1)c1ccccc1 (stereo unspecified)	-2.25 ± 2.2
C[C@H](NC[C@H](O)CP(=O)(O)CC1CCCCC1)c1ccc(Cl)c(Cl)c1	0.0645 ± 0.67
O=C(O)Cc1ccc(OCCNC[C@H](O)c2ccccc2)cc1 [ZD 2079 hydrochloride]	0.365 ± 1.6
COC(=O)C1=C(C)NC(C)=C([N+](=O)[O-])[C@H]1c1ccccc1C(F)(F)F	4.86 ± 2.8
COc1ccc2[nH]c(C(=O)c3ccccc3)cc2c1	-46.4 ± 13
COC(=O)/C=C/c1cc(O)ccc1O [Methyl 2,5-dihydroxycinnamate]	-8.86 ± 0.44
CC(C)NCC(O)COc1ccc(CCOCC2CC2)cc1 (stereo unspecified) [Betaxolol hydrochloride]	-7.66 ± 5.2
Cc1cc(I)ccc1Nc1c(C(=O)NOCC2CC2)cc(F)c(F)c1F	-66.3 ± 15
CC#C[C@]1(O)CC[C@H]2[C@@H]3CCC4=CC(=O)CCC4=C3[C@@H](c3ccc(N(C)C)cc3)C[C@@]21C [Mifepristone]	-21.9 ± 7.3
COc1ccc2[nH]c([S+]([O-])Cc3ncc(C)c(OC)c3C)nc2c1 (stereo unspecified) [Omeprazole]	0.346 ± 0.97
O=C(c1ccc(OCCN2CCCCC2)cc1)c1c(-c2ccc(O)cc2)sc2cc(O)ccc12 [Raloxifene hydrochloride]	-48.1 ± 47
COc1cc2c(cc1C(F)(F)F)N(C(=O)Nc1cc(F)cc(-c3cccnc3)c1)CC2	-53.6 ± 14
CNCCC(Oc1ccc(C(F)(F)F)cc1)c1ccccc1 (stereo unspecified) [Fluoxetine hydrochloride]	-31.9 ± 9.2
N[C@@H](Cc1cc(-c2ccc(Cl)cc2Cl)cc(CP(=O)(O)O)c1O)C(=O)O	4.18 ± 3.1
C[N+](C)(C)CC[N+]1(C)Cc2c(Cl)c(Cl)c(Cl)c(Cl)c2C1 [Chlorisondamine diiodide]	-0.335 ± 0.23
Cn1cc(C2=C(c3ccc(Cl)cc3Cl)C(=O)NC2=O)c2ccccc21	0.389 ± 1.6
c1ccc(C(NCCNC(c2ccccc2)c2ccccc2)c2ccccc2)cc1 [AMN 082 dihydrochloride]	-27.8 ± 13
CN(CCc1ccc(Cl)c(Cl)c1)CC(O)COc1ccc(NS(C)(=O)=O)cc1 (stereo unspecified)	-26.8 ± 7.7
Oc1ccc(-c2nc3cc(O)cc(Br)c3o2)cc1	-12.1 ± 1.7

Structure (SMILES)	robust z score of cilia incidence
N[C@H]1CCN(O)C1=O	-2.17 ± 1.7
CN(C)C(=O)C(CCN1CCC(O)(c2ccc(Cl)cc2)CC1)(c1ccccc1)c1ccccc1 [Loperamide hydrochloride]	-65.2 ± 7.9
CCN(Cc1ccncc1)C(=O)C(CO)c1ccccc1 (stereo unspecified) [Tropicamide]	-2.08 ± 2.6
Nc1ncn([C@H]2C[C@H](O)[C@@H](CO)O2)c(=O)n1 [Decitabine]	-39 ± 4
CCc1ccc(OCc2ccccc2C(=O)Nc2ccc3nc(C)cc(N)c3c2)cc1	-66.7 ± 16
Cc1c(OCC(F)(F)F)ccnc1C[S+]([O-])c1nc2ccccc2[nH]1 (stereo unspecified) [Lansoprazole]	0.622 ± 2.2
CN1CCC[C@@H]1Cc1c[nH]c2ccc(CCS(=O)(=O)c3ccccc3)cc12 [Eletriptan hydrobromide]	-8.01 ± 3.7
Brc1c(NC2=NCCN2)ccc2nccnc12	0.712 ± 1
CC1(CN2CCC(n3c(=O)[nH]c4ccccc43)CC2)OCc2ccccc2-n2cccc21 (stereo unspecified)	-20.6 ± 21
C[C@H](NC[C@H](O)CP(=O)(O)Cc1ccccc1)c1ccc(Cl)c(Cl)c1	0.6 ± 1.8
COc1cccc(/C=N/N=C/c2cccc(OC)c2)c1	6.34 ± 12
O=C1CC2(CCCC2)CC(=O)N1CCNCC1COc2ccccc2O1 (stereo unspecified)	-26.1 ± 2.8
Cc1ccc2c(=O)c3ccccc3n(CCCN)c2c1C	-65.6 ± 12
COc1ccc2cccc(N3CCN(CCNC(=O)c4ccc(F)cc4)CC3)c2c1	-24.4 ± 30
Oc1ccc(C2CNCCc3c2cc(O)c(O)c3Cl)cc1 (stereo unspecified) [Fenoldopam hydrochloride]	0.378 ± 0.53
N[C@@H](CC(=O)Nc1ccc(Oc2cc(F)c(F)cc2Br)cc1)C(=O)O	-2.78 ± 2.9
COC1CCC(C(=O)c2ccc3nc4c(cc3c2)CCCO4)CC1 (stereo unspecified)	-3.62 ± 3.6
C[C@@H](N)[C@H]1CC[C@H](C(=O)Nc2ccncc2)CC1	-8.2 ± 7.1
Nc1[nH]nc2nnc(-c3c(-c4ccccc4)nn4ccccc34)cc12	-10.3 ± 3.5

system: mIMCD3; experiment: robust z score of cilia incidence (% cells with single cilium) vs plate controls; higher = more ciliated cells (rescue of cilia loss); conditions: 10 µM; 48 h; siRNA: siRpgrip1l

Structure (SMILES)	robust z score of cilia incidence
OC(CN1CCN(c2cccc(Cl)c2)CC1)C(c1ccccc1)c1ccccc1 (stereo unspecified)	-14.1 ± 0.52
C[C@H](NC[C@H](O)CP(=O)(O)CC1CCCCC1)c1ccc(Cl)c(Cl)c1	-16.1 ± 2.3
O=C(O)Cc1ccc(OCCNC[C@H](O)c2ccccc2)cc1 [ZD 2079 hydrochloride]	-10.3 ± 1
COC(=O)C1=C(C)NC(C)=C([N+](=O)[O-])[C@H]1c1ccccc1C(F)(F)F	-167 ± 110
COc1ccc2[nH]c(C(=O)c3ccccc3)cc2c1	-538 ± 310
COC(=O)/C=C/c1cc(O)ccc1O [Methyl 2,5-dihydroxycinnamate]	-36.6 ± 1.2
CC(C)NCC(O)COc1ccc(CCOCC2CC2)cc1 (stereo unspecified) [Betaxolol hydrochloride]	-13.6 ± 3.2
Cc1cc(I)ccc1Nc1c(C(=O)NOCC2CC2)cc(F)c(F)c1F	-57.6 ± 8.6
CC#C[C@]1(O)CC[C@H]2[C@@H]3CCC4=CC(=O)CCC4=C3[C@@H](c3ccc(N(C)C)cc3)C[C@@]21C [Mifepristone]	-417 ± 290
COc1ccc2[nH]c([S+]([O-])Cc3ncc(C)c(OC)c3C)nc2c1 (stereo unspecified) [Omeprazole]	-16.6 ± 3.9
O=C(c1ccc(OCCN2CCCCC2)cc1)c1c(-c2ccc(O)cc2)sc2cc(O)ccc12 [Raloxifene hydrochloride]	-27.5 ± 7.4
COc1cc2c(cc1C(F)(F)F)N(C(=O)Nc1cc(F)cc(-c3cccnc3)c1)CC2	-33.3 ± 13
CNCCC(Oc1ccc(C(F)(F)F)cc1)c1ccccc1 (stereo unspecified) [Fluoxetine hydrochloride]	-25.5 ± 5.6
N[C@@H](Cc1cc(-c2ccc(Cl)cc2Cl)cc(CP(=O)(O)O)c1O)C(=O)O	-6.01 ± 3.6
C[N+](C)(C)CC[N+]1(C)Cc2c(Cl)c(Cl)c(Cl)c(Cl)c2C1 [Chlorisondamine diiodide]	-8.28 ± 5.3
Cn1cc(C2=C(c3ccc(Cl)cc3Cl)C(=O)NC2=O)c2ccccc21	-148 ± 73
c1ccc(C(NCCNC(c2ccccc2)c2ccccc2)c2ccccc2)cc1 [AMN 082 dihydrochloride]	-26.1 ± 10
CN(CCc1ccc(Cl)c(Cl)c1)CC(O)COc1ccc(NS(C)(=O)=O)cc1 (stereo unspecified)	-24.5 ± 5
Oc1ccc(-c2nc3cc(O)cc(Br)c3o2)cc1	-6.37 ± 1.8

Structure (SMILES)	robust z score of cilia incidence
N[C@H]1CCN(O)C1=O	-12.2 ± 12
CN(C)C(=O)C(CCN1CCC(O)(c2ccc(Cl)cc2)CC1)(c1ccccc1)c1ccccc1 [Loperamide hydrochloride]	-41.2 ± 2.2
CCN(Cc1ccncc1)C(=O)C(CO)c1ccccc1 (stereo unspecified) [Tropicamide]	-8.85 ± 3.3
Nc1ncn([C@H]2C[C@H](O)[C@@H](CO)O2)c(=O)n1 [Decitabine]	-36.3 ± 0.85
CCc1ccc(OCc2ccccc2C(=O)Nc2ccc3nc(C)cc(N)c3c2)cc1	-56.3 ± 7
Cc1c(OCC(F)(F)F)ccnc1C[S+]([O-])c1nc2ccccc2[nH]1 (stereo unspecified) [Lansoprazole]	-20.2 ± 1.9
CN1CCC[C@@H]1Cc1c[nH]c2ccc(CCS(=O)(=O)c3ccccc3)cc12 [Eletriptan hydrobromide]	-235 ± 160
Brc1c(NC2=NCCN2)ccc2nccnc12	-4.48 ± 2.4
CC1(CN2CCC(n3c(=O)[nH]c4ccccc43)CC2)OCc2ccccc2-n2cccc21 (stereo unspecified)	-23.4 ± 14
C[C@H](NC[C@H](O)CP(=O)(O)Cc1ccccc1)c1ccc(Cl)c(Cl)c1	-9.14 ± 2.4
COc1cccc(/C=N/N=C/c2cccc(OC)c2)c1	-15.2 ± 8.4
O=C1CC2(CCCC2)CC(=O)N1CCNCC1COc2ccccc2O1 (stereo unspecified)	-37.7 ± 22
Cc1ccc2c(=O)c3ccccc3n(CCCN)c2c1C	-57.9 ± 7.3
COc1ccc2cccc(N3CCN(CCNC(=O)c4ccc(F)cc4)CC3)c2c1	-28.7 ± 11
Oc1ccc(C2CNCCc3c2cc(O)c(O)c3Cl)cc1 (stereo unspecified) [Fenoldopam hydrochloride]	-145 ± 97
N[C@@H](CC(=O)Nc1ccc(Oc2cc(F)c(F)cc2Br)cc1)C(=O)O	-15.1 ± 3.1
COC1CCC(C(=O)c2ccc3nc4c(cc3c2)CCCO4)CC1 (stereo unspecified)	-17.2 ± 12
C[C@@H](N)[C@H]1CC[C@H](C(=O)Nc2ccncc2)CC1	-6.99 ± 6.8
Nc1[nH]nc2nnc(-c3c(-c4ccccc4)nn4ccccc34)cc12	-12 ± 1.9

Reference: the supplement of paper PMC12009310
